Results are given in words; binding and its absence hold for the method and conditions named. Binding seen in cells or lysates may run through a third protein. These calls come from enrichment with a bait or labelling near it, and not all partners need be listed. For some assays here: No binding means not detected with the bait.

These results are taken from paper PMC10168607.

Experiment [1] concerns the target CBX7 (mouse (endogenous in ESCs)) (UniProt Q8VDS3). Put plainly: affinity purification with mass spectrometry; endogenous CBX7 immunoprecipitated from WT mouse ESC lysates with antibody cross-linked to Protein A beads, 250 U/mL Benzonase, 4 °C overnight, washes in Buffer C100 + 0.02% NP-40; IgG negative control; triplicate.
Experiment [2] deals with T1, CBX7 (mouse (endogenous in ESCs)), Q8VDS3.
T1 chain: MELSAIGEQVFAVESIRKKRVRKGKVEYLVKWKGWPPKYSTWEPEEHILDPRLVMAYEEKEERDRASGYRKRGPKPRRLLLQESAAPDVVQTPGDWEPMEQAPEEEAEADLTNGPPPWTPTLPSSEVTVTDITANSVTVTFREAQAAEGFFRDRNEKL
The description is as above. As to conditions: remark: other sources report otherwise.

B1: JARID2 (protein, UniProt Q62315 1-1234)
chain: MSKERPKRNIIQKKYDDSDGIPWSEERVVRKVLYLSLKEFKNAQKRQHGEGLAGSLKAVNGLLGNAQAKALGPASEQSENEKDDASQVSSTSNDVSSSDFEEGPSRKRPRLQAQRKFAQSQPNSPSTTPVKIVEPLLPPPATQISDLSKRKPKTEDFLTFLCLRGSPALPNSMVYFGSSQDEEDVEEEDDETEDVKATTNNASSSCQSTPRKGKTHKHVHNGHVFNGSSRSAREKEPAHKHRSKEATPGKEKHSEPRADSRREQASGAQPTAASAAASSAKGLAANHQPPPSHRSAQDLRKQVSKVNGVTRMSSLGAGTNSAKKIREVRPSPSKTVKYTATVTKGTVTYTKAKRELVKETKPNHHKPSSAVNHTISGKTESSNAKTRKQVLSLGGASKSTGPAASGLKASSRLNPKSCTKEVGGRQLREGLRNSKRRLEEAQQVDKPQSPPKKMKGVAGNAEAPGKKASAASGEKSLLNGHVKKEVPERSLERNRPKRAAAGKNMLGKQAHGKTEGTPCENRSTSQPESSHKPHDPQGKPEKGSGKSGWAAMDEIPVLRPSAKEFHDPLIYIESVRAQVEKYGMCRVIPPPDWRPECKLNDEMRFVTQIQHIHKLGRRWGPNVQRLACIKKHLRSQGITMDELPLIGGCELDLACFFRLINEMGGMQQVTDLKKWNKLADMLRIPKTAQDRLAKLQEAYCQYLLSYDSLSPEEHRRLEKEVLMEKEILEKRKGPLEGHTESDHHKFHSLPRFEPKNGLVHGVTPRNGFRSKLKEVGRAPLKTGRRRLFAQEKEVVKEEEEDKGVLNDFHKCIYKGRSVSLTTFYRTARNIMNMCFSKEPAPAEIEQEYWRLVEEKDCHVAVHCGKVDTNTHGSGFPVGKSEPFSRHGWNLTVLPNNTGSILRHLGAVPGVTIPWLNIGMVFSTSCWSRDQNHLPYIDYLHTGADCIWYCIPAEEENKLEDVVHTLLQGNGTPGLQMLESNVMISPEVLCKKGIKVHRTVQQSGQFVVCFPGSFVSKVCCGYNVSETVHFATTQWTSMGFETAKEMKRRHIAKPFSMEKLLYQIAQAEAKKENGPTLSTISALLDELRDTELRQRRLLFEAGLHSSARYGSHDGNSTVADGKKKPRKWLQLETSERRCQICQHLCYLSMVVQENENVVFCLECALRHVEKQKSCRGLKLMYRYDEEQIISLVNQICGKVSGKHGGIENCLNKPTPKRGPRKRATVDVPPSRLPSS
B1: in experiment [1], the binding result is listed as “no binding”.

B2: PHC3 (protein, UniProt Q8CHP6 1-981)
chain: MDSEPSSGTSVSTTASSTTTTTITTSSSRMQQPQISVYSGSDRHAVQVIQQALHRPPSSAAQYLQQMYAAQQQHLMLHTAALQQQHLSSSQLQSLAAVQASLSSGRPSTSPTGSVTQQSSMSQTSILSASPAPAQLMNRSQTSSSTSGSITQQTMLLGSTSPTLTASQAQMYLRAQMLIFTPATTVAAVQSDIPVVSSSPSPSCQSAAAQVQNLTLRSQKLGVLSSSQNGSPKSAGQTQSLTICHNKTTVTSSKISQRDPSPESKKGGSPGLESRSTAVTRTSSIHQLIAPASYSPIQPHSLIKHQQIPLHSPPPKVSHHQLLLQQQQQQIQPITLQSPSQDPPPSQHCIPLPNHGLSPAPSNAQPQHCSPVQSHPPPLTVSPNQAQSAQQSVVVSPPPPHSPSQSPTIIIHPQALIQPHPLVSSALQTGPNLQQAAADQVQSTAQLNLPSHLPLPASPVVHIGPVQQSALVSPGQQMVSPTSHQQYSALQSSPIPIATPPQMSASPPAQLPPLPLQSMQSLQVQPEILSQGQVLVQNALVSEEELPAAEALVQLPFQTLPPPQTVAVNLQVQPPAPVDPPVVYQVEDVCEEEMPEESDECARMDRTPPPPTLSPAAVTVGRGEDLTSEHPLLEQVELPAVASVSASVIKSPSDPTHASAPAPPLLIPAASTRSSSTSLASSTPSLENKPPQAIVKPQILTHVIEGFVIQEGLEPFPVSRSSLLIEQPVKKRPLLDNQVVNSVCVQPELQNNTKHADNSSDTEIEDMMAEETLEEMDSELLKCEFCGKMGYPNEFLRSKRFCTMSCAKRYNVSCSKKFALSRWNRKPDNQSLGHRGRRPSGPEGAAREHILRQLPITYPSAEEDVASHEDPVPSAMTTRLRRQSERERERELRDVRIRKMPENSDLLPVAQTEPSIWTVDDVWAFIHSLPGCQDVADEFRAQEIDGQALLLLKEDHLMSAMNMKLGPALKICARINSLKDS
As for B2, the binding entry in experiment [1] is listed as “binds”.

B3: PHC1, Q64028 1-1010 (protein)
chain: METESEQNSSSTNGSSSSGASSRPQIAQMSLYERQAVQALQALQRQPNAAQYFHQFMLQQQLSNAQLHSLAAVQQATIAASRQASSPNSSTAQQQTATTQASMNLATTSAAQLISRSQSVSSPSATTLTQSVLLGNTTSPPLNQSQAQMYLRPQLGNLLQVNRTLGRNVPLASQLILMPNGAVAAVQQEVPPAQSPGVHADADQVQNLAVRNQQASAQGPQMPGSTQKAIPPGASPVSGLSQTSSQALAVAQASSGASGQSLNLSQAGGGSGNSLPGSMGPGGGGQAPGGLGQLPSSGLTGGSCPRKGTGVVQPLPAAQTVTVSQGSQTEAESAAAKKAEADGSGQQSVGMNLTRTATPAPSQTLISSATYTQIQPHSLIQQQQQIHLQQKQVVIQQQIAIHHQQQFQHRQSQLLHTATHLQLAQQQQQQQQQQQQQQQQQQQQQQGTTLTAPQPPQVPPTQQVPPSQSQQQAQTLVVQPMLQSSPLTLPPEPTSKPPIPIQSKPPVAPIKPPQLGAAKMSATQQPPPHIPVQVVGTRQPGSAQAQALGLAQLAAAVPTPRGITGAVQPGQAHLASSPPSSQAAPGALQECPPALAAGMTLAPVQGTAHVVKGGPTASSPVVAQVPAAFYMQSVHLPGKAQTLAVKRKAESEEERDDLSALASVLPTKASPAAESPKVIEEKNSLGEKAEPVASLNANPPNSDLVALAPTPSAPPPTLALVSRQMGDSKPPQAIVKPQILTHIIEGFVIQEGAEPFPVGCSQFLKETKKPLQAGLPTGLNESQPSGPLGGDSPSVELEKKANLLKCEYCGKYAPAEQFRGSKRFCSMTCAKRYNVSCSHQFRLKRKKMKEFQEASYARVRRRGPRRSSSDIARAKIQGKRHRGQEDSSRGSDNSSYDEALSPTSPGPLSVRAGHGERDLGNTITTPSTPELQGINPVFLSSNPSQWSVEEVYEFIASLQGCQEIAEEFRSQEIDGQALLLLKEEHLMSAMNIKLGPALKICAKINVLKET
On to B3, for which the binding result in experiment [2] is reported as “binds”.

B4: PCGF4 (protein, UniProt P25916 1-324)
chain: MHRTTRIKITELNPHLMCVLCGGYFIDATTIIECLHSFCKTCIVRYLETSKYCPICDVQVHKTRPLLNIRSDKTLQDIVYKLVPGLFKNEMKRRRDFYAAHPSADAANGSNEDRGEVADEEKRIITDDEIISLSIEFFDQSRLDRKVNKEKPKEEVNDKRYLRCPAAMTVMHLRKFLRSKMDIPNTFQIDVMYEEEPLKDYYTLMDIAYIYTWRRNGPLPLKYRVRPTCKRMKMSHQRDGLTNAGELESDSGSDKANSPAGGVPSTSSCLPSPSTPVQSPHPQFPHISSTMNGTSNSPSANHQSSFASRPRKSSLNGSSATSSG
Regarding B4, in experiment [1], the binding result is “binds”.

B5: PCGF1 (protein, UniProt Q8R023 1-259)
chain: MASPQGGQIAIAMRLRNQLQSVYKMDPLRNEEEVRVKIKDLNEHIVCCLCAGYFVDATTITECLHTFCKSCIVKYLQTSKYCPMCNIKIHETQPLLNLKLDRVMQDIVYKLVPGLQDSEEKRIREFYQSRGLDRVSQPSGEEPALSNLGLPFSSFDHSKAHYYRYDEQLSLCLERLSSGKDKNKNVLQNKYVRCSVRAEVRHLRRVLCHRLMLNPQHVQLLFDNEVLPDHMTMKQLWLSRWFGKPSPLLLQYSVKEKRR
On to B5, for which the binding entry in experiment [1] is recorded as “binds”.

B6: PHC2 (protein, UniProt Q9QWH1 1-850)
chain: MENELPVPHTSNRASVTTNTSGTNSSSGCISSSGGGGGSGGRPTAPQISVYSGIPDRQTVQVIQQALHRQPSTAAQYLQQMYAAQQQHLMLQTAALQQQHLSSAQLQSLAAVQQASLVANRQGSTPGSSVSSQAPAQSSSLNLAASPAAAQLINRAQSVNSAAASGLAQQAVLLGNTSSPALTASQAQMYLRAQMLIFTPTATVATVQPELCTGSPARPPTPAQVQNLTLRTQQTPAAAASGPPPTQPVLPSLALKPTPSSSQPLPAPPQGRTMAQGSPAGAKPSGTDNAPETLKAGDGNCNMEGRPGPGRAVPAVATHPLIAPAYAHLQSHQLLPQPPAKHPQPQFVAQQQPQPPRPAPQVQSQPQLASVSPSLALQSSPEDHALPLGSVTQALPLQCSTTHVHKPGNSQQCHLPTLDTGSQNGHPEGGSHPPQRRFQHTSAVILQVQPASPVTPQQCAPDDWKEVVPAEKSVPVARPGPSPHQQAIIPAIPGGLPGPKSPNIQQCPAHETGQGIVHALTDLSSPGMTSGNGNSASSIAGTAPQNGENKPPQAIVKPQILTHVIEGFVIQEGAEPFPVGRSSLLVGNLKKKYAQGFLPEKPPQQDHTTTTDSEMEEPYLQESKEEGTPLKLKCELCGRVDFAYKFKRSKRFCSMACAKRYNVGCTKRVGLFHSDRSKLQKAGTTTHNRRRASKASLPTLTKDTKKQPSGTVPLSVTAALQLAHSQEDSSRCSDNSSYEEPLSPISASSSTSRRRQGQRDLDLPDMHMRDLVGVGHHFLPSEPTKWNVEDVYEFIRSLPGCQEIAEEFRAQEIDGQALLLLKEDHLMSAMNIKLGPALKIYARISMLKDS
For B6, the binding result in experiment [1] is given as “binds”.

B7: PCGF6 (protein, UniProt Q99NA9 1-353)
chain: MDEAETDATENKRASEAKRASAMPPPPPPPPPISPPALIPAPAAGEEGPASLGQAGAAGCSRSRPPALEPERSLGRLRGRFEDYDEELEEEEEMEEEEEEEEEMSHFSLRLESGRADSEDEEERLINLVELTPYILCSICKGYLIDATTITECLHTFCKSCIVRHFYYSNRCPKCNIVVHQTQPLYNIRLDRQLQDIVYKLVINLEEREKKQMHDFYKERGLEVPKPAAPQPVPSSKGKTKKVLESVFRIPPELDMSLLLEFIGANEDTGHFKPLEKKFVRVSGEATIGHVEKFLRRKMGLDPACQVDIICGDHLLERYQTLREIRRAIGDTAMQDGLLVLHYGLVVSPLKIT
As to B7, the binding entry in experiment [1] was “binds”.

B8: PCGF2, P23798 1-342 (protein)
chain: MHRTTRIKITELNPHLMCALCGGYFIDATTIVECLHSFCKTCIVRYLETNKYCPMCDVQVHKTRPLLSIRSDKTLQDIVYKLVPGLFKDEMKRRRDFYAAYPLTEVPNGSNEDRGEVLEQEKGALGDDEIVSLSIEFYEGVRDREEKKNLTENGDGDKEKTGVRFLRCPAAMTVMHLAKFLRNKMDVPSKYKVEILYEDEPLKEYYTLMDIAYIYPWRRNGPLPLKYRVQPACKRLTLPTVPTPSEGTNTSGASECESVSDKAPSPATLPATSSSLPSPATPSHGSPSSHGPPATHPTSPTPPSTAAGTTTATNGGTSNCLQTPSSTSRGRKMTVNGAPCPP
As to B8, in experiment [2], the binding entry was “binds”.
